# Results reported in patent publication US5208217A (Mount Sinai School of Medicine of The City University of …, priority 1991, dated 1993).
# *: point of attachment. Mts = Cc1cc(C)c(S(=O)(=O)*)c(C)c1; Boc = CC(C)(C)OC(=O)*; Bn = c1ccc(C*)cc1; NHNH2 = NN*
# Test: general procedure: solution-phase peptide synthesis; azide fragment condensation; p-nitrophenyl active esters; N,N'-dicyclohexylcarbo
# Details: coupling step
row,Substance,step yield
1,Boc-Asn-Tyr(Bzl)-Cys(PMB)-Asn.cndot.OBzl,64%
2,Boc-Glu(OBzl)-Asn-Tyr(Bzl)-Cys(PMB)-Asn.cndot.OBzl,81%
3,Boc-Gly-Val-Cys(PMB)-Ser(Bzl)-Leu-Trp(Mts)-Gln-Leu-Glu(OBzl)-Asn-Tyr(Bzl)-Cys(PMB)-Asn.cndot.OBzl,82%
4,Boc-Leu-Trp(Mts)-Gln-Leu.cndot.OMe,71%
5,Boc-Ser(Bzl)-Leu-Trp(Mts)-Gln-Leu-Glu(OBzl)-Asn-Tyr(Bzl)-Cys(PMB)-Asn.cndot.OBzl,38%
6,Boc-Ser(Bzl)-Leu-Trp(Mts)-Gln-Leu.cndot.OMe,85%
7,Z-Gly-Ile-Val-Glu(OBu^t)-Gln-Cys(PMB)-Cys(PMB)-Ala-Gly-Val-Cys(PMB)-Ser(Bzl)-Leu-Trp(Mts)-Gln-Leu-Glu(OBzl)-Asn-Tyr(Bzl)-Cys(PMB)-Asn.cndot.OBzl,76%

# Same assay, conditions: late stage modification step
row,Substance,step yield
1,Boc-S(Bn)LW(Mts)QL-NHNH2,94%
